Experimental data: publication PMC11982563
Read-outs that look alike come from different tables or passages of the source. These are yes or no findings as the source states them, for the method shown. Binding seen in cells or lysates may run through a third protein. Some binding calls cover weakened binding; strength is not graded here. Sequences can lack the tags named with a protein. One block for each molecule: values may come before it.

The chains behind the UniProt entries cited, without tags or fusion partners.
UniProt Q80SW1: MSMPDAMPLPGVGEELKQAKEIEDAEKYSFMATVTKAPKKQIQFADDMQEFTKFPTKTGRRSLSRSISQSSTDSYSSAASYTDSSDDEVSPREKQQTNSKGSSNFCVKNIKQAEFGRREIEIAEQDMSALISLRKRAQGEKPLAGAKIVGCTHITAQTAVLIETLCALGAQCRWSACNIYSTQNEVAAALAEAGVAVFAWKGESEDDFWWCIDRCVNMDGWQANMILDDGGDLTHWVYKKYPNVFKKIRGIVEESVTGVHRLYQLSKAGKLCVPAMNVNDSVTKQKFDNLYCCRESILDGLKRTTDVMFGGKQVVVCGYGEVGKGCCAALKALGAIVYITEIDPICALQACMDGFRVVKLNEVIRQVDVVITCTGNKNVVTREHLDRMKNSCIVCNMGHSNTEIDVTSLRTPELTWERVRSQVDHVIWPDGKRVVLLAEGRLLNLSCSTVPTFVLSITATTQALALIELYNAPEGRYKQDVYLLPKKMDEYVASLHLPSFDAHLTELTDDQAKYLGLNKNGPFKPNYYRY

Columns and labels:
[1] = biological target: T1, Myc-ANO1 (mouse) (UniProt Q8BHY3); experiment: co-IP; HEK293T cells transfected 18-24 h, vehicle or forskolin/IBMX 10 min at 37 C, surface biotinylated, lysed in 20 mM Tris, 150 mM NaCl, 2 mM EDTA, 1% Triton X-100; which protein was precipitated is not told
T1 sequence: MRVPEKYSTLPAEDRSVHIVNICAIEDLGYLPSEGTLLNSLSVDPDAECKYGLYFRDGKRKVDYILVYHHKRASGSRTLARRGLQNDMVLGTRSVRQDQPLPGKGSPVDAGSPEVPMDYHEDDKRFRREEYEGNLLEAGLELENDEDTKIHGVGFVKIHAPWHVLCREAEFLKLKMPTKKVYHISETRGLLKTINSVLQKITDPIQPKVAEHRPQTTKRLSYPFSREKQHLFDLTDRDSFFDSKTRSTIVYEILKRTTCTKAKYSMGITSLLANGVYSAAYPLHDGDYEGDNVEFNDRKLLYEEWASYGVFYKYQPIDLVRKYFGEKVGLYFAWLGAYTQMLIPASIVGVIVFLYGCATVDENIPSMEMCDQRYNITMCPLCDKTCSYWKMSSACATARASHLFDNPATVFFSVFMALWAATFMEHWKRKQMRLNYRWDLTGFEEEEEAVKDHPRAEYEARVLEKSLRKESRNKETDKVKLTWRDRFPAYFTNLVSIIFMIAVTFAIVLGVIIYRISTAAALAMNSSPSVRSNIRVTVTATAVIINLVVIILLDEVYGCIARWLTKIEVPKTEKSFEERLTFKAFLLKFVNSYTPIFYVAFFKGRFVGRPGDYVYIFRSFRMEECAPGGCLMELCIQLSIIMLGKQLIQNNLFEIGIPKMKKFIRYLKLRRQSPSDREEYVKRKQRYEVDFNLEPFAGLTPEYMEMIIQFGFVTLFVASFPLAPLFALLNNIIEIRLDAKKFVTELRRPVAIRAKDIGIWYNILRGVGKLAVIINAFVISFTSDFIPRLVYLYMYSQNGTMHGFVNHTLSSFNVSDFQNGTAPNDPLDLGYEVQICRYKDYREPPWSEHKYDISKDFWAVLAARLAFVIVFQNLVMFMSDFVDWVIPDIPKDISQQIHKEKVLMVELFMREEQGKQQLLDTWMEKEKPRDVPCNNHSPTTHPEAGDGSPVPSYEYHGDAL

[2] = biological target: T2, ANO1-YFP (mouse) (UniProt Q8BHY3); experiment: FRET or BRET; fluorescently tagged proteins co-expressed in HEK293 cells on glass-bottom dishes, live cells in bath solution; imaged before and after 2.5 uM forskolin + 50 uM IBMX; also with CPA, siRNA of ACs and AKAPs, STIM1-/- cells and co-expressed VAPA, E-Syt1, E-Syt2, AC8 or AKAP5
T2 sequence: T1 sequence

[3] = biological target: T2, ANO1-YFP (mouse); experiment: as above; remark: listed apart in the source
[4] = biological target: T1, Myc-ANO1 (mouse); experiment: co-IP; HEK293T cells transfected 18-24 h, vehicle or forskolin/IBMX 10 min at 37 C, surface biotinylated, lysed in 20 mM Tris, 150 mM NaCl, 2 mM EDTA, 1% Triton X-100; which protein was precipitated is not told; remark: listed apart in the source

binding [1]: binds
Molecule: Flag-IRBIT (from UniProt Q80SW1 1-530)

binding [3]: binds | binding [4]: binds
B2: E-Syt1 (protein, UniProt Q9BSJ8 1-1104)
chain: MERSPGEGPSPSPMDQPSAPSDPTDQPPAAHAKPDPGSGGQPAGPGAAGEALAVLTSFGRRLLVLIPVYLAGAVGLSVGFVLFGLALYLGWRRVRDEKERSLRAARQLLDDEEQLTAKTLYMSHRELPAWVSFPDVEKAEWLNKIVAQVWPFLGQYMEKLLAETVAPAVRGSNPHLQTFTFTRVELGEKPLRIIGVKVHPGQRKEQILLDLNISYVGDVQIDVEVKKYFCKAGVKGMQLHGVLRVILEPLIGDLPFVGAVSMFFIRRPTLDINWTGMTNLLDIPGLSSLSDTMIMDSIAAFLVLPNRLLVPLVPDLQDVAQLRSPLPRGIIRIHLLAARGLSSKDKYVKGLIEGKSDPYALVRLGTQTFCSRVIDEELNPQWGETYEVMVHEVPGQEIEVEVFDKDPDKDDFLGRMKLDVGKVLQASVLDDWFPLQGGQGQVHLRLEWLSLLSDAEKLEQVLQWNWGVSSRPDPPSAAILVVYLDRAQDLPLKKGNKEPNPMVQLSIQDVTQESKAVYSTNCPVWEEAFRFFLQDPQSQELDVQVKDDSRALTLGALTLPLARLLTAPELILDQWFQLSSSGPNSRLYMKLVMRILYLDSSEICFPTVPGCPGAWDVDSENPQRGSSVDAPPRPCHTTPDSQFGTEHVLRIHVLEAQDLIAKDRFLGGLVKGKSDPYVKLKLAGRSFRSHVVREDLNPRWNEVFEVIVTSVPGQELEVEVFDKDLDKDDFLGRCKVRLTTVLNSGFLDEWLTLEDVPSGRLHLRLERLTPRPTAAELEEVLQVNSLIQTQKSAELAAALLSIYMERAEDLPLRKGTKHLSPYATLTVGDSSHKTKTISQTSAPVWDESASFLIRKPHTESLELQVRGEGTGVLGSLSLPLSELLVADQLCLDRWFTLSSGQGQVLLRAQLGILVSQHSGVEAHSHSYSHSSSSLSEEPELSGGPPHITSSAPELRQRLTHVDSPLEAPAGPLGQVKLTLWYYSEERKLVSIVHGCRSLRQNGRDPPDPYVSLLLLPDKNRGTKRRTSQKKRTLSPEFNERFEWELPLDEAQRRKLDVSVKSNSSFMSRERELLGKVQLDLAETDLSQGVARWYDLMDNKDKGSS

Further lines, the molecule ahead of its results:

Molecule: IRBIT-CFP (from UniProt Q80SW1 1-530)
binding [2]: binds

B1: E-Syt2 (protein, UniProt A0FGR8 1-921)
chain: MTANRDAALSSHRHPGCAQRPRTPTFASSSQRRSAFGFDDGNFPGLGERSHAPGSRLGARRRAKTARGLRGHRQRGAGAGLSRPGSARAPSPPRPGGPENPGGVLSVELPGLLAQLARSFALLLPVYALGYLGLSFSWVLLALALLAWCRRSRGLKALRLCRALALLEDEERVVRLGVRACDLPAWVHFPDTERAEWLNKTVKHMWPFICQFIEKLFRETIEPAVRGANTHLSTFSFTKVDVGQQPLRINGVKVYTENVDKRQIILDLQISFVGNCEIDLEIKRYFCRAGVKSIQIHGTMRVILEPLIGDMPLVGALSIFFLRKPLLEINWTGLTNLLDVPGLNGLSDTIILDIISNYLVLPNRITVPLVSEVQIAQLRFPVPKGVLRIHFIEAQDLQGKDTYLKGLVKGKSDPYGIIRVGNQIFQSRVIKENLSPKWNEVYEALVYEHPGQELEIELFDEDPDKDDFLGSLMIDLIEVEKERLLDEWFTLDEVPKGKLHLRLEWLTLMPNASNLDKVLTDIKADKDQANDGLSSALLILYLDSARNLPSGKKISSNPNPVVQMSVGHKAQESKIRYKTNEPVWEENFTFFIHNPKRQDLEVEVRDEQHQCSLGNLKVPLSQLLTSEDMTVSQRFQLSNSGPNSTIKMKIALRVLHLEKRERPPDHQHSAQVKRPSVSKEGRKTSIKSHMSGSPGPGGSNTAPSTPVIGGSDKPGMEEKAQPPEAGPQGLHDLGRSSSSLLASPGHISVKEPTPSIASDISLPIATQELRQRLRQLENGTTLGQSPLGQIQLTIRHSSQRNKLIVVVHACRNLIAFSEDGSDPYVRMYLLPDKRRSGRRKTHVSKKTLNPVFDQSFDFSVSLPEVQRRTLDVAVKNSGGFLSKDKGLLGKVLVALASEELAKGWTQWYDLTEDGTRPQAMT
binding [3]: binds | binding [4]: binds
